The source of these data is US20140350088.

Amino acid sequences for entries named in this document (tags omitted). Residues count along the entry.
UniProt P01275, 53-81: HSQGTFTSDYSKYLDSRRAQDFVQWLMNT

The target of data set [1] is biotinylated human glucagon (Homo sapiens) (UniProt P01275). Kind of data set: SPR. The conditions noted are these: L-RNA, synthetic protein, mirror-image nucleic acid.
Data set [2] has as its target T1, human C5a (Homo sapiens) (UniProt P01031).
T1 sequence: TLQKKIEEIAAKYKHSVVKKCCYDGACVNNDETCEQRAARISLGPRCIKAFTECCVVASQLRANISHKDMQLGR
Nature of the data set: SPR. As to conditions: L-RNA, purified recombinant protein, protein details: Sigma Aldrich; for binding signal: affinity improved vs NOX-D19001.

The exact form of at least one protein or probe is not confirmed. Weaker means in comparison with the reference protein, sequence or condition of that experiment. For some of these results: Protein sequences can lack the tags named with them. For some of these results: Whether high values mean tight binding is not given here for every scale.

Take “CAGACGUGUGUGGGUAGAUGCACCUGCGAUUCGCUAAAAAGUGCCACACGUCUG [NOX-G11-D41]”: the binding result in data set [1] (dG at 41, reduced or lost binding vs parent, variant of NOX-G11stabi2) is “binds more weakly”.

For the sequence “CAGACGUGUGUGGGUAGAUGCACCUGCGAUUCGCUAAAAAGUGCCACACGUCUG [NOX-G11-D43]”, the binding result in data set [1] (2'-deoxy at 43, unchanged vs parent, 37 C, synthetic backbone) is “binds”.

With “CAGACGUGUGUGGGUAGAUGCACCUGCGAUUCGCUAAAAAGUGCCACACGUCUG [NOX-G11-D44]”, in data set [1] (2'-deoxy at 44, improved vs parent, 37 C, synthetic backbone), the binding result is listed as “binds”.

Consider “CAGACGUGUGUGGGUAGAUGCACCUGCGAUUCGCUAAAAAGUGCCACACGUCUG [NOX-G11-D45]”, for which the binding result in data set [1] (2'-deoxy at 45, unchanged vs parent, 37 C, synthetic backbone) was “binds”.

On to “CAGACGUGUGUGGGUAGAUGCACCUGCGAUUCGCUAAAAAGUGCCACACGUCUG [NOX-G11-D46]”, for which the binding result in data set [1] (2'-deoxy at 46, improved vs parent, 37 C, synthetic backbone) is recorded as “binds”.

Consider “CAGACGUGUGUGGGUAGAUGCACCUGCGAUUCGCUAAAAAGUGCCACACGUCUG [NOX-G11-D47]”, for which, in data set [1] (dC at 47, reduced or lost binding vs parent, variant of NOX-G11stabi2), the binding result is on record as “binds more weakly”.

As to “CAGACGUGUGUGGGUAGAUGCACCUGCGAUUCGCUAAAAAGUGCCACACGUCUG [NOX-G11-D48]”, in data set [1] (2'-deoxy at 48, improved vs parent, 37 C, synthetic backbone), the binding result was “binds”.

With “CAGACGUGUGUGGGUAGAUGCACCUGCGAUUCGCUAAAAAGUGCCACACGUCUG [NOX-G11-D49]”, the binding result in data set [1] (dC at 49, reduced or lost binding vs parent, variant of NOX-G11stabi2) is on record as “binds more weakly”.

Turning to “CAGACGUGUGUGGGUAGAUGCACCUGCGAUUCGCUAAAAAGUGCCACACGUCUG [NOX-G11-D50]”, the binding result in data set [1] (2'-deoxy at 50, unchanged vs parent, 37 C, synthetic backbone) is “binds”.

For “CAGACGUGUGUGGGUAGAUGCACCUGCGAUUCGCUAAAAAGUGCCACACGUCUG [NOX-G11-D52]”, the binding result in data set [1] (2'-deoxy at 52, unchanged vs parent, 37 C, synthetic backbone) is “binds”.

For the sequence “CAGACGUGUGUGGGUAGAUGCACCUGCGAUUCGCUAAAAAGUGCCACACGUCUG [NOX-G11-D54]”, in data set [1] (dG at 54, reduced or lost binding vs parent, variant of NOX-G11stabi2), the binding result is on record as “binds more weakly”.

Take “GCCUGAUGUGGUGGUGAAGGGUUGUUGGGUGUCGACGCACAGGC [NOX-D19001-6xDNA (D09-16-17-30-32-40)]”: the binding signal in data set [2] (dU at 9, 30, 32, dG at 16, dA at 17, dC at 40, amine-coupled for SPR, mirror-image nucleic acid, variant of NOX-D19001) worked out at 4.2 fold.

“GCCUGAUGUGGUGGUGAAGGGUUGUUGGGUGUCGACGCACAGGC [NOX-D19001-D01]”: in data set [2] (2'-deoxy at 1, improved vs parent, 37 C, amine coupled to CM5 chip, synthetic backbone, mirror-image nucleic …), the binding result is recorded as “binds”.

As for “GCCUGAUGUGGUGGUGAAGGGUUGUUGGGUGUCGACGCACAGGC [NOX-D19001-D02]”, the binding result in data set [2] (2'-deoxy at 2, improved vs parent, 37 C, amine coupled to CM5 chip, synthetic backbone, mirror-image nucleic …) is listed as “binds”.

As for “GCCUGAUGUGGUGGUGAAGGGUUGUUGGGUGUCGACGCACAGGC [NOX-D19001-D03]”, the binding result in data set [2] (2'-deoxy at 3, unchanged vs parent, 37 C, amine coupled to CM5 chip, synthetic backbone, mirror-image nucleic acid) was “binds”.

For the sequence “GCCUGAUGUGGUGGUGAAGGGUUGUUGGGUGUCGACGCACAGGC [NOX-D19001-D04]”, the binding result in data set [2] (dU at 4, reduced or lost binding vs parent, amine-coupled for SPR, mirror-image nucleic acid, variant of NOX-D19001) is given as “binds more weakly”.

On to “GCCUGAUGUGGUGGUGAAGGGUUGUUGGGUGUCGACGCACAGGC [NOX-D19001-D05]”, for which, in data set [2] (dG at 5, reduced or lost binding vs parent, amine-coupled for SPR, mirror-image nucleic acid, variant of NOX-D19001), the binding result was “binds more weakly”.

Consider “GCCUGAUGUGGUGGUGAAGGGUUGUUGGGUGUCGACGCACAGGC [NOX-D19001-D06]”, for which the binding result in data set [2] (dA at 6, reduced or lost binding vs parent, amine-coupled for SPR, mirror-image nucleic acid, variant of NOX-D19001) was “binds more weakly”.

As for “GCCUGAUGUGGUGGUGAAGGGUUGUUGGGUGUCGACGCACAGGC [NOX-D19001-D07-16-17-30-32-40]”, the binding result in data set [2] (dU at 7, 30, 32, dG at 16, dA at 17, dC at 40, partly restored relative to D07-30, amine-coupled for SPR, mirror-image nucleic acid, variant of NOX-D19001) was “binds more weakly”.

In the case of “GCCUGAUGUGGUGGUGAAGGGUUGUUGGGUGUCGACGCACAGGC [NOX-D19001-D07-30]”, the binding result in data set [2] (dU at 7, 30, reduced by dU at 7, amine-coupled for SPR, mirror-image nucleic acid, variant of NOX-D19001) is “binds more weakly”.

As for “GCCUGAUGUGGUGGUGAAGGGUUGUUGGGUGUCGACGCACAGGC [NOX-D19001-D07]”, the binding result in data set [2] (dU at 7, reduced or lost binding vs parent, amine-coupled for SPR, mirror-image nucleic acid, variant of NOX-D19001) was “binds more weakly”.

On to “GCCUGAUGUGGUGGUGAAGGGUUGUUGGGUGUCGACGCACAGGC [NOX-D19001-D08]”, for which the binding result in data set [2] (dG at 8, reduced or lost binding vs parent, amine-coupled for SPR, mirror-image nucleic acid, variant of NOX-D19001) was “binds more weakly”.

Turning to “GCCUGAUGUGGUGGUGAAGGGUUGUUGGGUGUCGACGCACAGGC [NOX-D19001-D09-16-30-32-40]”, the binding result in data set [2] (dU at 9, 30, 32, dG at 16, dC at 40, better than D09-30-32-40, amine-coupled for SPR, mirror-image nucleic acid, variant of NOX-D19001) is listed as “binds”.

Take “GCCUGAUGUGGUGGUGAAGGGUUGUUGGGUGUCGACGCACAGGC [NOX-D19001-D09-17-30-32-40]”: the binding result in data set [2] (dU at 9, 30, 32, dA at 17, dC at 40, better than D09-30-32-40, amine-coupled for SPR, mirror-image nucleic acid, variant of NOX-D19001) is given as “binds”.

Take “GCCUGAUGUGGUGGUGAAGGGUUGUUGGGUGUCGACGCACAGGC [NOX-D19001-D09-30-32-40]”: the binding result in data set [2] (dU at 9, 30, 32, dC at 40, better than triple substitutions, amine-coupled for SPR, mirror-image nucleic acid, variant of NOX-D19001) is “binds”.

As for “GCCUGAUGUGGUGGUGAAGGGUUGUUGGGUGUCGACGCACAGGC [NOX-D19001-D09-30-40]”, the binding result in data set [2] (dU at 9, 30, dC at 40, better than double substitutions, amine-coupled for SPR, mirror-image nucleic acid, variant of NOX-D19001) is “binds”.

As to “GCCUGAUGUGGUGGUGAAGGGUUGUUGGGUGUCGACGCACAGGC [NOX-D19001-D09-30]”, the binding result in data set [2] (dU at 9, 30, better than single substitutions, amine-coupled for SPR, mirror-image nucleic acid, variant of NOX-D19001) is “binds”.

In the case of “GCCUGAUGUGGUGGUGAAGGGUUGUUGGGUGUCGACGCACAGGC [NOX-D19001-D09-32-40]”, in data set [2] (dU at 9, 32, dC at 40, better than double substitutions, amine-coupled for SPR, mirror-image nucleic acid, variant of NOX-D19001), the binding result is given as “binds”.

Regarding “GCCUGAUGUGGUGGUGAAGGGUUGUUGGGUGUCGACGCACAGGC [NOX-D19001-D09-32]”, in data set [2] (dU at 9, 32, better than single substitutions, amine-coupled for SPR, mirror-image nucleic acid, variant of NOX-D19001), the binding result is “binds”.

For “GCCUGAUGUGGUGGUGAAGGGUUGUUGGGUGUCGACGCACAGGC [NOX-D19001-D09-40]”, in data set [2] (dU at 9, dC at 40, better than single substitutions, amine-coupled for SPR, mirror-image nucleic acid, variant of NOX-D19001), the binding result is reported as “binds”.

With “GCCUGAUGUGGUGGUGAAGGGUUGUUGGGUGUCGACGCACAGGC [NOX-D19001-D09]”, the binding signal in data set [2] (dU at 9, amine-coupled for SPR, mirror-image nucleic acid, variant of NOX-D19001) is 2 fold.

As to “GCCUGAUGUGGUGGUGAAGGGUUGUUGGGUGUCGACGCACAGGC [NOX-D19001-D10]”, in data set [2] (dG at 10, reduced or lost binding vs parent, amine-coupled for SPR, mirror-image nucleic acid, variant of NOX-D19001), the binding result is reported as “binds more weakly”.

Consider “GCCUGAUGUGGUGGUGAAGGGUUGUUGGGUGUCGACGCACAGGC [NOX-D19001-D11]”, for which the binding result in data set [2] (2'-deoxy at 11, reduced or lost vs parent, 37 C, amine coupled to CM5 chip, synthetic backbone, mirror-image nucleic acid) is “binds more weakly”.

For the sequence “GCCUGAUGUGGUGGUGAAGGGUUGUUGGGUGUCGACGCACAGGC [NOX-D19001-D12]”, the binding result in data set [2] (dU at 12, reduced or lost vs parent, 37 C, amine coupled to CM5 chip, synthetic backbone, mirror-image nucleic acid) is “binds more weakly”.

For the sequence “GCCUGAUGUGGUGGUGAAGGGUUGUUGGGUGUCGACGCACAGGC [NOX-D19001-D13]”, the binding result in data set [2] (2'-deoxy at 13, reduced or lost vs parent, 37 C, amine coupled to CM5 chip, synthetic backbone, mirror-image nucleic acid) is recorded as “binds more weakly”.

Take “GCCUGAUGUGGUGGUGAAGGGUUGUUGGGUGUCGACGCACAGGC [NOX-D19001-D14]”: the binding result in data set [2] (2'-deoxy at 14, reduced or lost vs parent, 37 C, amine coupled to CM5 chip, synthetic backbone, mirror-image nucleic acid) is “binds more weakly”.

With “GCCUGAUGUGGUGGUGAAGGGUUGUUGGGUGUCGACGCACAGGC [NOX-D19001-D15]”, the binding result in data set [2] (dU at 15, reduced or lost vs parent, 37 C, amine coupled to CM5 chip, synthetic backbone, mirror-image nucleic acid) is “binds more weakly”.
